Some of these results come from one statement about several compounds together. At least one structure is not confirmed: it was looked up by name or label, or the drawing left a doubt.
These compounds were tested on Botrytis cinerea (assay: Botrytis test (bean)/protective). Conditions: active compound concentration 250 ppm, protective, evaluation 2 days after inoculation.
Format: in vivo

Structure (SMILES) | efficacy [%]
CC(=NOCC(CON=C(C)c1cccc(C)n1)C(C)C)c1cccc(C)n1 (stereo not shown) [Compound 680] | ≥ 70
CC(=NOCC(CON=C(C)c1ccc(C)c(C)n1)C(C)(C)C)c1ccc(C)c(C)n1 (stereo not shown) [Compound 317] | ≥ 70
C=C(CON=C(C)c1cccc(C)n1)CON=C(N)c1cccc(C)n1 [Compound 23] | ≥ 70
CCCc1cccc(C(C)=NOCCCON=C(C)c2cccc(CCC)n2)n1 [Compound 174] | ≥ 70
CC(=NOCCCON=C(C)c1cccc(Cc2ccccc2)n1)c1cccc(Cc2ccccc2)n1 [Compound 131] | ≥ 70
CC(=NOCCCON=C(C)c1ccc2c(n1)CCC2)c1ccc2c(n1)CCC2 [Compound 302] | ≥ 70
CC(=NOCC(F)CON=C(C)c1cccc(C)n1)c1cccc(C)n1 (stereo not shown) [Compound 212] | ≥ 70
C=C(CON=C(C)c1cccc(C)n1)CON=C(C)c1cccc(Cc2ccccc2)n1 [Compound 350] | ≥ 70
COc1ccc(C)nc1C(C)=NOCC(C)CON=C(C)c1nc(C)ccc1OC (stereo not shown) [Compound 251] | ≥ 70
CC(=NOCC(C)CON=C(C)c1cccc(Cc2ccccc2)n1)c1cccc(Cc2ccccc2)n1 (stereo not shown) [Compound 173] | ≥ 70
CCc1ccnc(C(C)=NOCCCON=C(C)c2cc(CC)ccn2)c1 [Compound 136] | ≥ 70
CC(=NOCCCON=C(C)c1cccc(CC(C)C)n1)c1cccc(CC(C)C)n1 [Compound 134] | ≥ 70
CC(=NOCCCON=C(C)c1ccc(C)cn1)c1ccc(C)cn1 [Compound 81] | ≥ 70
CCCc1cccc(C(C)=NOCC(C)CON=C(C)c2cccc(CCC)n2)n1 (stereo not shown) [Compound 175] | ≥ 70
CC(=NOCC(C)CON=C(C)c1cccc(C)n1)c1cccc(C)n1.Cl.Cl (stereo not shown) [Compound 688] | ≥ 70
CCCc1nc(C(C)=NOCC(C)CON=C(C)c2ccc(C)c(CCC)n2)ccc1C (stereo not shown) [Compound 550] | ≥ 70
CC(=NOCC(CON=C(C)c1nc(C)ccc1C)C(C)C)c1nc(C)ccc1C (single isomer, unassigned) [Compound 753] | ≥ 70

These compounds were tested on Pyrenophora teres (assay: Pyrenophora teres test (barley)/protective). Conditions: active compound concentration 1000 ppm, protective, evaluation 8 days after inoculation.
Format: in vivo

Structure (SMILES) | efficacy [%]
Cc1cccc(C(=NOCC(C)CON=C(c2cccc(C)n2)C2CC2)C2CC2)n1 (single isomer, unassigned) [Compound 164] | ≥ 70
COCc1cccc(C(C)=NOCC(C)CON=C(C)c2cccc(COC)n2)n1 (stereo not shown) [Compound 290] | ≥ 70
CC(=NOCC(C)(O)CON=C(C)c1cccc(C)n1)c1cccc(C)n1 (stereo not shown) [Compound 12] | ≥ 70
C=C(CON=C(C)c1cccc(C)n1)CON=C(C#N)c1ccc(C)c(C)n1 [Compound 821] | ≥ 70
Cc1cccc(C(=NOCCCON=C(c2cccc(C)n2)C(C)C)C(C)C)n1 (single isomer, unassigned) [Compound 88] | ≥ 70
CC(=NOCCCON=C(C)c1nc(C)cs1)c1cccc(C)n1 (mixture of isomers) [Compound 16] | ≥ 70
Cc1cccc(C(CC(C)C)=NOCCCON=C(CC(C)C)c2cccc(C)n2)n1 (single isomer, unassigned) [Compound 115] | ≥ 70
C=C(CON=C(C)c1cccc(C)n1)CON=C(N)c1nc(C)c(C(C)CC)c(C2CC2)n1 (stereo not shown) [Compound 244] | ≥ 70
CC(=NOCCCCCCCON=C(C)c1cccc(C)n1)c1cccc(C)n1 [Compound 217] | ≥ 70
C=C(CON=C(OC)c1cc(C)cc(C)n1)CON=C(OC)c1cc(C)cc(C)n1 [Compound 829] | ≥ 70
CCOC(CON=C(C)c1cccc(C)n1)CON=C(C)c1cccc(C)n1 (stereo not shown) [Compound 586] | ≥ 70
C=C(CON=C(c1cccc(C)n1)C1CC1)CON=C(c1cccc(C)n1)C1CC1 (mixture of isomers) [Compound 312] | ≥ 70
CC(=NOCC(C)CON=C(C)c1nc2ccccc2s1)c1nc2ccccc2s1 (stereo not shown) [Compound 213] | ≥ 70
CCSC(=NOCC(C)CON=C(SCC)c1cccc(C)n1)c1cccc(C)n1 (stereo not shown) [Compound 820] | ≥ 70
C=C(CON=C(C)c1cccc(C)n1)CON=C(c1cccc(C)n1)C(C)C (single isomer, unassigned) [Compound 672] | ≥ 70
C/C(=N\OCCOCOCCO/N=C(\C)c1cccc(C)n1)c1cccc(C)n1 [Compound 216] | ≥ 70
CC(=NOCC(CON=C(C)c1cccc(C)n1)c1ccccc1)c1cccc(C)n1 (stereo not shown) [Compound 264] | ≥ 70
C=C(CON=C(C)c1cccc(C)n1)CON=C(C)c1cccc(C(C)=O)n1 [Compound 117] | ≥ 70
CC(=NOCC(CON=C(C)c1ccc(C)c(C)n1)Cc1ccccc1)c1ccc(C)c(C)n1 (stereo not shown) [Compound 581] | ≥ 70
C=C(CON=C(CCC)c1cccc(C)n1)CON=C(CCC)c1cccc(C)n1 (mixture of isomers) [Compound 240] | ≥ 70
C=C(CON=C(C#N)c1cccc(C)n1)CON=C(C#N)c1cccc(C)n1 [Compound 784] | ≥ 70
C=C(CON=C(C)c1cccc(C)n1)CON=C(N)c1nc(C2CC2)cc(C2CC2)n1 [Compound 243] | ≥ 70

Each compound was assayed on Sphaerotheca fuliginea (assay: Sphaerotheca test (cucumber)/protective). Conditions: active compound concentration 500 ppm, protective, evaluation 7 days after inoculation.
Format: in vivo

Structure (SMILES) | efficacy [%]
CC(=NOCC(C)CON=C(C)c1nc(C)c(C)cc1C)c1nc(C)c(C)cc1C (stereo not shown) [Compound 255] | ≥ 70
C=C(CON=Cc1cc(C(F)(F)F)cc(C)n1)CON=C(C)c1cccc(C)n1 (mixture of isomers) [Compound 671] | ≥ 70
C#CCOc1ccc(C(C)=NOCC(C)CON=C(C)c2ccc(OCC#C)c(C)n2)nc1C (stereo not shown) [Compound 867] | ≥ 70
CC(=NOCC(CON=C(C)c1cccc(C)n1)C(C)C)c1cccc(C)n1 (stereo not shown) [Compound 680] | ≥ 70
CC(=NOCC(CON=C(C)c1ccc(C)c(C)n1)C(C)(C)C)c1ccc(C)c(C)n1 (stereo not shown) [Compound 317] | ≥ 70
CCc1nc(C(C)=NOCC(C)CON=C(C)c2ccc(C)c(CC)n2)ccc1C (stereo not shown) [Compound 310] | ≥ 70
CCCc1cccc(C(C)=NOCCCON=C(C)c2cccc(CCC)n2)n1 [Compound 174] | ≥ 70
CCCC(=NOCC(C)CON=C(CCC)c1ccc(C)c(C)n1)c1ccc(C)c(C)n1 (stereo not shown) [Compound 262] | ≥ 70
C=C(CON=C(CC)c1cccc(CC)n1)CON=C(CC)c1cccc(CC)n1 [Compound 265] | ≥ 70
CC(=NOCCCON=C(C)c1ccc2c(n1)CCC2)c1ccc2c(n1)CCC2 [Compound 302] | ≥ 70
CC(=NOCC(C)CON=C(C)c1cccc(CC(C)C)n1)c1cccc(C)n1 (stereo not shown) [Compound 423] | ≥ 70
C=C(CON=C(C)c1cccc(C)n1)CON=C(Cl)c1ccc(C)c(C)n1 [Compound 807] | ≥ 70
CC(=NOCC(C)(C)CON=C(C)c1nc2ccccc2[nH]1)c1nc2ccccc2[nH]1 [Compound 573] | ≥ 70
CC(=NOCC(C)(C)CON=C(C)c1cccc(-c2ccccc2)n1)c1cccc(-c2ccccc2)n1 [Compound 575] | ≥ 70
CC(=NOCCON=C(C)c1cccnc1)c1cccnc1 [Compound 32] | ≥ 70
Cc1cccc(C(Cl)=NOCC(C)CON=C(Cl)c2cccc(C)n2)n1 (stereo not shown) [Compound 824] | ≥ 70
Cc1cccc(C(CC(C)C)=NOCCCON=C(CC(C)C)c2cccc(C)n2)n1 (single isomer, unassigned) [Compound 115] | ≥ 70

Structure (SMILES) | efficacy [%]
CCCC(=NOCCCON=C(CCC)c1ccc(C)c(C)n1)c1ccc(C)c(C)n1 (mixture of isomers) [Compound 260] | ≥ 70
C=C(CON=C(C)c1cccc(C)n1)CON=C(C)c1cccc(Br)n1 [Compound 206] | ≥ 70
CC#Cc1cccc(C(C)=NOCC(C)CON=C(C)c2cccc(C#CC)n2)n1 (stereo not shown) [Compound 686] | ≥ 70
CC(=NOCC(C)CON=C(C)c1cccc(C(C)C)n1)c1cccc(C(C)C)n1 (stereo not shown) [Compound 229] | ≥ 70
CCCC(=NOCC(C)(C)CON=C(CCC)c1cccc(C)n1)c1cccc(C)n1 [Compound 279] | ≥ 70
CC(=NOCC(C)CON=C(C)c1cccc(C(C)C)n1)c1cccc(C)n1 (stereo not shown) [Compound 504] | ≥ 70
CC(=NOCC(C)CON=C(C)c1cccc(C(F)(F)F)n1)c1cccc(C(F)(F)F)n1 (stereo not shown) [Compound 169] | ≥ 70
CC(=NOCCCON=C(C)c1cccc(CC(C)C)n1)c1cccc(CC(C)C)n1 [Compound 134] | ≥ 70
CCCc1cccc(C(C)=NOCC(C)CON=C(C)c2cccc(CCC)n2)n1 (stereo not shown) [Compound 175] | ≥ 70
CC(=NOCC(C)CON=C(C)c1cccc(C)n1)c1cccc(C)n1.Cl.Cl (stereo not shown) [Compound 688] | ≥ 70
CC(=NOCC(C)CON=C(C)c1cccc([Si](C)(C)C)n1)c1ccccn1 (stereo not shown) [Compound 826] | ≥ 70
CCCC(=NOCC(C)CON=C(C)c1cccc(C)n1)c1cccc(C)n1 (stereo not shown) [Compound 427] | ≥ 70
CC(=NOCC(CON=C(C)c1cccc(C)n1)c1ccccc1)c1cccc(C)n1 (stereo not shown) [Compound 264] | ≥ 70
CC(=NOCC(CON=C(C)c1ccc(C)c(C)n1)Cc1ccccc1)c1ccc(C)c(C)n1 (stereo not shown) [Compound 581] | ≥ 70
C=C(CON=C(CCC)c1cccc(C)n1)CON=C(CCC)c1cccc(C)n1 (mixture of isomers) [Compound 240] | ≥ 70
CON=C(c1ccccc1)c1cccc(C(C)=NOCC(C)CON=C(C)c2cccc(C)n2)n1 (mixture of isomers) [Compound 693] | ≥ 70
Cc1cccnc1C(Cc1ccccc1)=NOCCCON=C(Cc1ccccc1)c1ncccc1C (single isomer, unassigned) [Compound 97] | ≥ 70

What follows are compounds tested on Venturia inaequalis (assay: Venturia test (apple)/protective). Conditions: active compound concentration 100 ppm, protective, evaluation 10 days after inoculation.
Format: in vivo

Structure (SMILES) | efficacy [%]
C=C(CON=C(C)c1cccc(C)n1)CON=C(C)c1ccc2ccccc2n1 [Compound 202] | ≥ 70
CC(=NOCC(CON=C(C)c1cccc(C)n1)C(C)C)c1cccc(C)n1 (stereo not shown) [Compound 680] | ≥ 70
CC(=NOCC(CON=C(C)c1ccc(C)c(C)n1)C(C)(C)C)c1ccc(C)c(C)n1 (stereo not shown) [Compound 317] | ≥ 70
CCc1nc(C(C)=NOCC(C)CON=C(C)c2ccc(C)c(CC)n2)ccc1C (stereo not shown) [Compound 310] | ≥ 70
CCCc1cccc(C(C)=NOCCCON=C(C)c2cccc(CCC)n2)n1 [Compound 174] | ≥ 70
CCCC(=NOCC(C)CON=C(CCC)c1ccc(C)c(C)n1)c1ccc(C)c(C)n1 (stereo not shown) [Compound 262] | ≥ 70
C=C(CON=C(CC)c1cccc(CC)n1)CON=C(CC)c1cccc(CC)n1 [Compound 265] | ≥ 70
Cc1cccc(C(=NOCCCON=C(c2cccc(C)n2)C(C)C)C(C)C)n1 (single isomer, unassigned) [Compound 88] | ≥ 70
C=C(CON=C(C)c1cccc(C)n1)CON=C(C)c1cccc(CCC)n1 [Compound 477] | ≥ 70
C=C(CON=C(C)c1cccc(C)n1)CON=C(N)c1nc(C)cc(OC)n1 [Compound 186] | ≥ 70
C=C(CON=C(C)c1cccc(C)n1)CON=C(N)c1nc(C)c2c(n1)CCCC2 [Compound 182] | ≥ 70
C=C(CON=C(C)c1cccc(C)n1)CON=C(N)c1cc(C)cc(C)n1 [Compound 189] | ≥ 70
C=C(CON=C(C)c1cccc(C)n1)CON=C(C)c1cccc(Cc2ccccc2)n1 [Compound 350] | ≥ 70
CC(=NOCCCCON=C(C)c1cccc(C)n1)c1ccccn1 [Compound 376] | ≥ 70
Cc1cccc(C=NOCCCON=Cc2cccc(C)n2)n1 [Compound 669] | ≥ 70
C=C(CON=C(c1cccc(C)n1)C1CC1)CON=C(c1cccc(C)n1)C1CC1 (mixture of isomers) [Compound 312] | ≥ 70
CC(=NOCCCON=C(C)c1cccc(CC(C)C)n1)c1cccc(CC(C)C)n1 [Compound 134] | ≥ 70
CCCc1cccc(C(C)=NOCC(C)CON=C(C)c2cccc(CCC)n2)n1 (stereo not shown) [Compound 175] | ≥ 70
CC(=NOCC(C)CON=C(C)c1cccc(C)n1)c1cccc(C)n1.Cl.Cl (stereo not shown) [Compound 688] | ≥ 70
CC(=NOCC(CON=C(C)c1cccc(C)n1)c1ccccc1)c1cccc(C)n1 (stereo not shown) [Compound 264] | ≥ 70
C=C(CON=C(CCC)c1cccc(C)n1)CON=C(CCC)c1cccc(C)n1 (mixture of isomers) [Compound 240] | ≥ 70

— patent US20100022559A1, “BISOXIMES AS FUNGICIDES” (BAYER CROPSCIENCE AG, priority 2006, published 2010)
